Data: the supplement of paper PMC12873370
Where “and” joins values, the source holds several entries; their conditions need not be identical. Identical values can stand only once. Some of the results follow. Most values come without repeats; read them as rough.

Legend:
Experiment in all cases: cell viability relative to untreated (fraction); higher = less growth inhibition
Conditions in all cases: 5 µM; 3 days
[1] = test system: MEPP (mouse ovarian epithelium Trp53/Pten KO)
[2] = test system: PREPP (mouse prostate epithelium Trp53/Pten KO)
[3] = test system: MEPP (mouse ovarian epithelium Trp53/Pten KO); remark: listed apart in the source
[4] = test system: PREPP (mouse prostate epithelium Trp53/Pten KO); remark: listed apart in the source

SMILES	cell viability [1]	cell viability [2]	cell viability [3]	cell viability [4]
Cn1cc(C(=O)O)ccc1=O	0.906	0.981	–	–
CC(C=CC(=O)NO)=CC(C)C(=O)c1ccc(N(C)C)cc1 (stereo not given)	0.665	0.507	0.452	0.736
C[C@@H]1CC[C@@]2(OC1)O[C@H]1C[C@H]3[C@@H]4CC=C5C[C@@H](O)CC[C@]5(C)[C@H]4CC[C@]3(C)[C@H]1[C@@H]2C	0.964	1.04	1.08	0.989
NC(=O)c1cccnc1	1.01	1.01	0.875	0.888
Nc1ccn([C@@H]2O[C@H](CO)[C@@H](O)[C@@H]2O)c(=O)n1	0.871	0.792	0.532	0.669
C[C@@H](O)[C@H]1C(=O)N2C(C(=O)O)=C(S[C@@H]3CN[C@H](CNS(N)(=O)=O)C3)[C@H](C)[C@H]12	1.12 and 1.01	0.933 and 0.912	–	–
O=C(O[C@@H]1Cc2c(O)cc(O)cc2O[C@@H]1c1cc(O)c(O)c(O)c1)c1cc(O)c(O)c(O)c1	1.36	0.918	0.941	0.854
CC1(C)CC[C@]2(C(=O)O[C@@H]3O[C@H](CO[C@@H]4O[C@H](CO)[C@@H](O)[C@H](O)[C@H]4O)[C@@H](O)[C@H](O)[C@H]3O)CC[C@]3(C)C(=CC[C@@H]4[C@@]5(C)CC[C@H](O[C@@H]6OC[C@H](O)[C@H](O)[C@H]6O)[C@@](C)(CO)[C@@H]5CC[C@]43C)[C@@H]2C1	1.4	1.01	–	–
COc1cc(/C=C/C(=O)CC(=O)/C=C/c2ccc(O)c(OC)c2)ccc1O	0.837 and 1.13	1.37 and 0.868	0.909	0.762
O=C(O)/C=C/c1ccccc1	0.982 and 0.978	1.24 and 0.899	1.16	1.08
C[C@@H]1O[C@@H](O[C@H]2[C@H](O[C@H]3[C@H](O[C@H]4CC[C@]5(C)[C@H]6CC=C7[C@@H]8CC(C)(C)CC[C@]8(C(=O)O)CC[C@@]7(C)[C@]6(C)CC[C@H]5C4(C)C)OC[C@H](O)[C@@H]3O)O[C@H](CO)[C@@H](O)[C@@H]2O)[C@H](O)[C@H](O)[C@H]1O	0.334	0.263	0.129	0.243
O=c1ccc2ccccc2o1	1.17	1.04	0.872	0.794
O=c1c(O)c(-c2ccc(O)c(O)c2)oc2cc(O)ccc12	0.799	1.1	0.966	0.925
NC(=O)c1ncn([C@@H]2O[C@H](CO)[C@@H](O)[C@H]2O)c1N	0.941	0.884	0.905	1.05
C[C@@H]1O[C@@H](Oc2c(-c3cc(O)c(O)c(O)c3)oc3cc(O)cc(O)c3c2=O)[C@H](O)[C@H](O)[C@H]1O	1.67	0.873	1.03	0.937
Oc1ccc(/C=C/c2cc(O)cc(O)c2)cc1	1.11	0.909	0.812	0.852
CCCC(=O)[O-].[Na+]	1.05	1.02	1.03	0.844
NC(N)=NCCCC(N)C(=O)O (stereo not given)	0.957	0.976	–	–
CCCCCCCCCCCCC/C=C/[C@@H](O)[C@@H](N)CO	0.856	0.959	1.08	1.09
C#Cc1cccc(Nc2ncnc3cc(OC)c(OCCCCCCC(=O)NO)cc23)c1	–	–	0.444	0.707
CCCCCCCCCC(=O)N[C@@H](Cc1c[nH]c2ccccc12)C(=O)N[C@@H](CC(N)=O)C(=O)N[C@@H](CC(=O)O)C(=O)N[C@@H]1C(=O)NCC(=O)N[C@@H](CCCN)C(=O)N[C@@H](CC(=O)O)C(=O)N[C@H](C)C(=O)N[C@@H](CC(=O)O)C(=O)NCC(=O)N[C@H](CO)C(=O)N[C@@H]([C@H](C)CC(=O)O)C(=O)N[C@@H](CC(=O)c2ccccc2N)C(=O)O[C@@H]1C	1.08	0.585	0.13	1.03
COc1cc2c(cc1O)CC[C@@H]1[C@@H]2CC[C@]2(C)[C@@H](O)CC[C@@H]12	0.65	0.734	0.439	0.697

SMILES	cell viability [1]	cell viability [2]	cell viability [3]	cell viability [4]
N#CC[C@H](C1CCCC1)n1cc(-c2ncnc3[nH]ccc23)cn1	1.11	0.822	1.16 and 1.03	0.901 and 0.829
COc1cccc2c1C(=O)c1c(O)c3c(c(O)c1C2=O)C[C@@](O)(C(=O)CO)C[C@@H]3O[C@H]1C[C@H](N)[C@H](O[C@@H]2CCCCO2)[C@H](C)O1	0.499	0.867	0.294	0.392
CC(C)c1cccc(=O)c(O)c1	0.812	0.611	0.734	0.59
O=c1c(O)c(-c2ccc(O)c(O)c2)oc2cc(O)cc(O)c12	1.06 and 1.07	1.45 and 0.888	1.07	0.878
O=c1oc2c(O)c(O)cc3c(=O)oc4c(O)c(O)cc1c4c23	1.11	0.958	1.01	0.887
NC(=O)c1ccccc1	0.8	1.08	1.08	1
O=c1cc(CO)occ1O	1.02	1.03	–	–
CO[C@@]12[C@H](COC(N)=O)C3=C(C(=O)C(C)=C(N)C3=O)N1C[C@@H]1N[C@@H]12	0.964	0.536	0.589	0.599
C=C1C(=O)O[C@H]2[C@H]1CC/C(C)=C/CC[C@@]1(C)O[C@@H]21	1.72	0.93	1.33	0.839
NC(=O)c1ncn([C@@H]2O[C@H](CO)[C@@H](O)[C@H]2O)c1O	1.3	0.944	1.08	0.96
CCCC(CCC)C(=O)O	0.577 and 0.989	0.503 and 0.984	1.08 and 0.978 and 0.872	0.94 and 0.998 and 0.915
Nc1nc2[nH]cnc2c(=S)[nH]1	0.507	0.64	0.339	0.684
CCCCC[C@H](O)CC(=O)CCc1ccc(O)c(OC)c1	1.3	0.897	0.891	0.88
CCOC(=O)NCCCC(=O)NCCc1ccccc1	0.847	1.03	1.01	0.854
CC(=O)O[C@H]1CC[C@@]2(C)C(=CC[C@@H]3[C@@H]2CC[C@]2(C)C(c4cccnc4)=CC[C@@H]32)C1	1.07	0.84	–	–
Cc1nnc(NS(=O)(=O)c2ccc(N)cc2)s1	0.819	0.846	–	–
O=c1ccn([C@@H]2O[C@H](COP(=O)(O)OP(=O)(O)OP(=O)(O)O)[C@@H](O)[C@H]2O)c(=O)[nH]1	1.25	1.07	–	–
O=C(O)CC(=O)C(=O)O	1.18	1.06	–	–
C[Se]CC[C@H](N)C(=O)O	1.03	0.76	–	–
Cc1nnc(SCC2=C(C(=O)O)N3C(=O)[C@@H](NC(=O)Cn4cnnn4)[C@H]3SC2)s1	1.11	0.888	–	–
Oc1ccc(CC2NCCc3cc(O)c(O)cc32)cc1 (stereo not given)	0.892	1.04	–	–
C=C[C@]1(C)C[C@@H](OC(=O)CO)[C@]2(C)[C@H](C)CC[C@]3(CCC(=O)[C@@H]32)[C@@H](C)[C@@H]1O	0.763	0.977	–	–

SMILES	cell viability [1]	cell viability [2]	cell viability [3]	cell viability [4]
CCCCC(=O)O[C@H]1CC[C@H]2[C@@H]3CCc4cc(O)ccc4[C@H]3CC[C@]12C	1.01	0.915	–	–
CCC1C=C(C)CC(C)CC(OC)C2OC(O)(C(=O)C(=O)N3CCCCC3C(=O)OC(C(C)=CC3CCC(O)C(OC)C3)C(C)C(O)CC1=O)C(C)CC2OC (stereo not given)	1.06	0.951	–	–
CC1OC(OC2C(OC3CCC4(C)C(CCC5(C)C4CC=C4C6CC(C)(C)CCC6(C(=O)OC6OC(COC7OC(CO)C(O)C(O)C7O)C(O)C(O)C6O)CCC45C)C3(C)CO)OCC(O)C2O)C(O)C(O)C1O (stereo not given)	1.03	1.01	–	–
C[C@@H](O)[C@H]1C(=O)N2C(C(=O)OCOC(=O)C(C)(C)C)=C(SC3CN(C4=NCCS4)C3)[C@H](C)[C@H]12	0.991	0.986	–	–
Cn1c(=O)[nH]c(=O)c2[nH]cnc21	0.966	0.945	–	–
COc1ccc(/C=C/C(=O)/C=C(O)/C=C/c2ccc(OC)c(OC)c2)cc1OC	0.918	0.535	–	–
COC1=C2C[C@@H](C)C[C@H](OC)[C@H](O)[C@@H](C)/C=C(\C)[C@H](OC(N)=O)[C@@H](OC)/C=C\C=C(/C)C(=O)NC(=CC1=O)C2=O	1.04	0.41	–	–
C[S+](CC[C@H](N)C(=O)[O-])C[C@H]1O[C@@H](n2cnc3c(N)ncnc32)[C@H](O)[C@@H]1O (stereo not given in full)	0.784 and 1.01	1.02 and 0.983	–	–
Nc1ncnc2c1ncn2[C@@H]1O[C@H](COP(=O)(O)OP(=O)(O)O)[C@@H](O)[C@H]1O	1.01	0.942	–	–
CC(=O)O[C@H]1C[C@@]2(C)[C@@H](C[C@@H](O)[C@H]3[C@@]4(C)CC[C@@H](O)[C@@H](C)[C@@H]4CC[C@@]32C)/C1=C(\CCC=C(C)C)C(=O)O	1.04	0.907	–	–
CC[C@H](C)[C@H](N)C1=N[C@H](C(=O)N[C@@H](CC(C)C)C(=O)N[C@H](CCC(=O)[O-])C(=O)N[C@H](C(=O)N[C@H]2CCCCNC(=O)[C@H](CC(N)=O)NC(=O)[C@@H](CC(=O)[O-])NC(=O)[C@H](Cc3cnc[nH]3)NC(=O)[C@@H](Cc3ccccc3)NC(=O)[C@H]([C@@H](C)CC)NC(=O)[C@@H](CCCN)NC2=O)[C@@H](C)CC)CS1.[Zn+2]	0.98	0.819	–	–
C[C@H](CCC(=O)NCC(=O)O)[C@H]1CC[C@H]2[C@@H]3[C@H](O)C[C@@H]4C[C@H](O)CC[C@]4(C)[C@H]3C[C@H](O)[C@]12C	0.918	0.843	–	–
O=c1ccoc2cc(O)cc(O)c12	1.25	1.03	–	–
Nc1nccs1	1.14	0.835	–	–
CC/C=C\C/C=C\C/C=C\C/C=C\C/C=C\CCCC(=O)O	0.801	0.975	–	–
CC1(C)CC[C@]2(C(=O)O)CC[C@]3(C)[C@H](C(=O)C=C4[C@@]5(C)C=C(C#N)C(=O)C(C)(C)[C@@H]5CC[C@]43C)[C@@H]2C1	0.466	0.787	–	–
C/C=C\c1ccc(O)c(OC)c1	0.902	1.02	–	–
Nc1ccccc1C(=O)C[C@H](N)C(=O)O	1.03	1.08	–	–
CN(C)c1ncnc2c1ncn2[C@@H]1O[C@H](CO)[C@@H](N)[C@H]1O	1.04	0.861	–	–
CCCCCCCCCCCCCCCC(=O)OCC	1.08	0.889	–	–
C/C=C/c1cc(OC)c2c(c1)C(C)C(c1ccc(O)c(OC)c1)O2 (stereo not given)	0.966	1.03	–	–
